{"sequences": {"note": "Protein sequences, listed by entry. Tags and fused reporters are not part of them. Lines headed by an entry give the natural chain unless they say otherwise; changes in a name come on top.", "UniProt P15204": "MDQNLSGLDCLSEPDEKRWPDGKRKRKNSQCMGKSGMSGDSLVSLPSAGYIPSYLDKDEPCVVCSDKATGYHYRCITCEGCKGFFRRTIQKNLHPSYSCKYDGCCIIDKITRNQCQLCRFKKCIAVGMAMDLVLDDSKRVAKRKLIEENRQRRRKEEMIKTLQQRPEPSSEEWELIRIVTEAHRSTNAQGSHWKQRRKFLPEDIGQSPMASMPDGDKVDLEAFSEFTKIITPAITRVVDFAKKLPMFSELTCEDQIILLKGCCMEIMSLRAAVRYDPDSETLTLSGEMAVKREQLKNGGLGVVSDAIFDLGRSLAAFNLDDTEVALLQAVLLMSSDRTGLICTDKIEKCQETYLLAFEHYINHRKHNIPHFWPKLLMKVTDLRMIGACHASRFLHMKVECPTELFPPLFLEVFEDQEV", "UniProt P10827": "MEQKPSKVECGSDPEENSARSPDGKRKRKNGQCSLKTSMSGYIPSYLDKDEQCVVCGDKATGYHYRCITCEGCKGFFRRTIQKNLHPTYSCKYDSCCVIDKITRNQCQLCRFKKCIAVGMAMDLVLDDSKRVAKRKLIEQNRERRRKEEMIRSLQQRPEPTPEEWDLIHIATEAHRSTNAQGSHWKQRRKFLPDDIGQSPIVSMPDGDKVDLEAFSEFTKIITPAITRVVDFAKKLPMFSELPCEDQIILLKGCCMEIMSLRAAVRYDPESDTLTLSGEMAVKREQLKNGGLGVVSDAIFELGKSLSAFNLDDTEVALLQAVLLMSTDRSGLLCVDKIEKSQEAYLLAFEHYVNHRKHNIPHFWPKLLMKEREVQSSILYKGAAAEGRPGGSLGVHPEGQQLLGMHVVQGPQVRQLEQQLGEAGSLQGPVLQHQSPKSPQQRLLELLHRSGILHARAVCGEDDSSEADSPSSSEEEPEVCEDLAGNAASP", "UniProt P10828": "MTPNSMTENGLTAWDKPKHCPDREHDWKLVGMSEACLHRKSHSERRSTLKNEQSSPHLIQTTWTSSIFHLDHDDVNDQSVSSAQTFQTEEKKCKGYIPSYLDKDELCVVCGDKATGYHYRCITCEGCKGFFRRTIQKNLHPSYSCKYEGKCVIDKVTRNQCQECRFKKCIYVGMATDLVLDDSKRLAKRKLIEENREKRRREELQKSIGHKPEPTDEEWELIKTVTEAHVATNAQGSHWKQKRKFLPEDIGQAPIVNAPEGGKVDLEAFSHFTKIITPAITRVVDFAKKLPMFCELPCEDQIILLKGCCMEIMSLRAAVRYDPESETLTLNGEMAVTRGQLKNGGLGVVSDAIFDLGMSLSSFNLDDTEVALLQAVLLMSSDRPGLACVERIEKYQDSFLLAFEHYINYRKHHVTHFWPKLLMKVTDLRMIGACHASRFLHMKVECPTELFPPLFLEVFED", "UniProt P06401": "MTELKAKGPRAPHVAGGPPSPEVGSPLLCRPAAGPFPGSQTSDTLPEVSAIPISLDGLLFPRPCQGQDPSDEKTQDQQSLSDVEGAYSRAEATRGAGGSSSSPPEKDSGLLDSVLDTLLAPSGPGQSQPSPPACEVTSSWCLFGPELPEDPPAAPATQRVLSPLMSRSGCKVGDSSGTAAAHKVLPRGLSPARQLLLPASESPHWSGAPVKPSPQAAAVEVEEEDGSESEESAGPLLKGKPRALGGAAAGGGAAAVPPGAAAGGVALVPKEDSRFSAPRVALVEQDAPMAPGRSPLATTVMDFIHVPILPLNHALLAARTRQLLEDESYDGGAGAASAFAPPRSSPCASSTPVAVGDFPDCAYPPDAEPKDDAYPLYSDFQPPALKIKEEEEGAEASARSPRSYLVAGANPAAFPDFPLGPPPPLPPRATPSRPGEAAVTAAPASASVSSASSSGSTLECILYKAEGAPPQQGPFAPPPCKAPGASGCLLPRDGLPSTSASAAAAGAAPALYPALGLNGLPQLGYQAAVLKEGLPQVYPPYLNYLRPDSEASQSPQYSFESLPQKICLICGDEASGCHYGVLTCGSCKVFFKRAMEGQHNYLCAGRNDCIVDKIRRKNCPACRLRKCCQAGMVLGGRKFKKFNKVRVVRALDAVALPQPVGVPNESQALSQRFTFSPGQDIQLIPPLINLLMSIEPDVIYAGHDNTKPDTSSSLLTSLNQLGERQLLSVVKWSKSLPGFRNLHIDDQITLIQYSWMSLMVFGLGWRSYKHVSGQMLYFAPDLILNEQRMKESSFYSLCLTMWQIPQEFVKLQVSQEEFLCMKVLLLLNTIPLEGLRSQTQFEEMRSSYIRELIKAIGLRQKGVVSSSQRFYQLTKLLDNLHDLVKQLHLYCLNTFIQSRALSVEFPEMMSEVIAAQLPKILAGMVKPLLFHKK"}, "source": "PubChem BioAssay (EPA / NIEHS)", "key": {"[1]": {"biological_target": "frog Thyroid hormone Receptor alpha (TRa), thra-a (gene 397942) (UniProt P15204)", "experiment": "ATG_frTRa_XSP2: Attagene TRANS-FACTORIAL Multi-Species (XSP2) HepG2 Assay for frog Thyroid hormone Receptor alpha (TRa) (AID 2283839);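 on AC50: AC50 reflects induction of frog TRa-driven reporter mRNA above DMSO baseline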", "procedure,_shortened": "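Chimeric frog TRα-GAL4 activity in human liver cells measures reporter transcript induction 24 h post-dose. Detection uses RT-PCR, HpaI-digested labelled products and fluorescence capillary electrophoresis; DMSO serves as negative control.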"}, "[2]": {"biological_target": "human Thyroid hormone Receptor alpha (TRa), THRA (gene 7067) (UniProt P10827)", "experiment": "ATG_hTRa_XSP2: Attagene TRANS-FACTORIAL Multi-Species (XSP2) HepG2 Assay for human Thyroid hormone Receptor alpha (TRa) (AID 2283838)", "procedure,_shortened": "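Gain-of-signal in reporter mRNA, relative to DMSO, after 24 h dosing of transfected HepG2; quantitation by RT-PCR fragment analysis on capillary electrophoresis.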"}, "[3]": {"biological_target": "human Thyroid hormone Receptor beta (TRb), THRB (gene 7068) (UniProt P10828)", "experiment": "ATG_hTRb_XSP2: Attagene TRANS-FACTORIAL Multi-Species (XSP2) HepG2 Assay for human Thyroid hormone Receptor beta (TRb) (AID 2283840);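 further: actives raise reporter mRNA so potency reflects agonist-like gain of signal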", "procedure,_shortened": "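Gain-of-signal reporter transcription, referenced to DMSO, was measured in transiently transfected HepG2 after 24 h exposure; labeled RT-PCR products were resolved by capillary electrophoresis. Assay medium included 3 nM 6-alpha-fluorotestosterone and 1.5 nM norgestrel.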"}, "[4]": {"experiment": "ATG_XTT_Cytotoxicity_XSP2: Cytotoxicity Assessment in the Attagene TRANS-FACTORIAL Multi-Species (XSP2) HepG2 Assay (AID 2283837)", "procedure,_shortened": "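XTT-based cell number read-out in human HepG2 liver cells carrying transfected reporter units, measured 24 h after chemical dosing. Activity is signal loss versus DMSO baseline.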"}, "[5]": {"system": "Sodium/Iodide Symporter (NIS), SLC5A5 (gene 6528)", "experiment": "CPHEA_Stoker_NIS_Inhibition_RAIU: CPHEA's Radioactive Iodide Uptake (RAIU) Assay for Sodium/Iodide Symporter (NIS) Inhibition, Stoker and Laws Labs (AID 2283841)", "procedure,_shortened": "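Test chemicals, six concentrations from 0.001 to 100uM in 0.5% DMSO, were co-incubated with carrier-free 125I (final 329pM) on hNIS-HEK293T-EPA monolayers in pH 7.4 HEPES-buffered HBSS. Plates stood 2 hours at room temperature, then were washed cold and counted.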"}, "[6]": {"experiment": "CPHEA_Stoker_NIS_Cytotoxicity: Cytotoxicity Assessment for CPHEA's Radioactive Iodide Uptake (RAIU) Assay for Sodium/Iodide Symporter (NIS) Inhibition, Stoker and Laws Labs (AID 2283897)", "procedure,_shortened": "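Viability in hNIS-HEK293T-EPA cells is scored as a drop in luciferase-detected ATP following 2-hour room-temperature exposure (0.001–100uM; triplicate wells, three cell passages), with DMSO as negative control.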"}, "[7]": {"experiment": "TOX21_PR_BLA_Followup_Antagonist_viability: Viability Assessment in the Tox21 HEK293 Progesterone Receptor (PR) Antagonism Beta-lactamase Follow-Up Assay (AID 2283936);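 further: hits lower the luminescence signal meaning cytotoxicity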", "procedure,_shortened": "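PR-UAS-bla HEK293T cells in medium with 2% charcoal-stripped FBS were treated with compounds plus R5020 for 16 hr at 37C. After the beta-lactamase read, CellTiter-Glo was added to the same wells and luminescence read after 30 min at room temperature.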"}, "[8]": {"experiment": "TOX21_PR_BLA_Followup_Agonist_viability: Viability Assessment in the Tox21 HEK293 Progesterone Receptor (PR) Agonism Beta-lactamase Follow-Up Assay (AID 2283935);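 further: signal loss means lower viability so actives are cytotoxic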", "procedure,_shortened": "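Viability is read as CellTiter-Glo luminescence, where loss of signal indicates cytotoxicity. The cells are PR-UAS-bla HEK293T given compounds for 16 hr at 37C and 5% CO2, in the same wells used for the bla readout.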"}, "PGR (gene 5241)": {"biological_target": "PGR (gene 5241) (UniProt P06401)", "experiment": "TOX21_PR_LUC_Followup_Antagonist: Tox21 HEK293 Progesterone Receptor (PR) Antagonism Luciferase Follow-Up Assay (AID 2283938);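 further: curve fitted upward as signal gain over DMSO baseline despite antagonist label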", "procedure,_shortened": "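Luciferase reporter in HEK293-PR-A-luc cells: 16 h compound treatment at 37C, ONE-Glo luminescence detection, DMSO as negative control and baseline.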"}, "[9]": {"biological_target": "Thyroid hormone receptor alpha (Rattus norvegicus) + Thyroid hormone receptor beta (Rattus norvegicus) (UniProt P18113+P63059)", "experiment": "TOX21_TR_LUC_GH3_Agonist_Followup: Tox21 GH3 Thyroid Hormone Receptor Agonism Luciferase Follow-Up Assay (AID 2283939)", "procedure,_shortened": "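Agonist-mode confirmatory run: 15 concentrations (5 nM to 92 uM final) on GH3 rat pituitary cells, 24 h at 37C/5% CO2, T3 as positive control. Luminescence read with ONE-Glo after 30 min.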"}}, "note": "Several values for one entry are separate records, joined by “and”; a condition that tells them apart may be missing. Identical values can stand only once. The shares of active, inactive and inconclusive entries below differ from those in the screen. For some of these results: Where the call is inconclusive, the potency comes from a doubtful curve fit. Activity calls are given as the source filed them. How the source made its calls: active means hit-call score of the fitted dose curve at least 0.9, where 1 is the maximum; inconclusive means response in the unintended direction; inactive means score below 0.9."}
{"smiles": "Oc1ccccc1Cc1ccccc1O", "values": [{"measurement": "AC50", "setting": "[1]", "result": "inconclusive: 0.00757 µM"}]}
{"smiles": "CCCCCCCCCCCCN", "values": [{"measurement": "AC50", "setting": "[2]", "result": "inconclusive: 30 µM and inconclusive: 7.37 µM"}, {"measurement": "AC50", "setting": "[1]", "result": "inconclusive: 30.6 µM"}, {"measurement": "AC50", "setting": "[3]", "result": "inconclusive: 30 µM and inconclusive: 48.3 µM"}]}
{"smiles": "CCN(Cc1c(F)cccc1Cl)c1c([N+](=O)[O-])cc(C(F)(F)F)cc1[N+](=O)[O-]", "values": [{"measurement": "AC50", "setting": "[1]", "result": "inconclusive: 100 µM"}]}
{"smiles": "Clc1ccc(C(c2ccccc2Cl)C(Cl)Cl)cc1", "note": "(configuration not stated)", "values": [{"measurement": "AC50", "setting": "[4]", "result": "active: 100 µM"}, {"measurement": "AC50", "setting": "[2]", "result": "inconclusive: 0.0274 µM"}, {"measurement": "AC50", "setting": "[1]", "result": "inconclusive: 37.4 µM"}, {"measurement": "AC50", "setting": "[3]", "result": "inconclusive: 60 µM"}]}
{"smiles": "CN(C)c1ccc(N=NS(=O)(=O)O)cc1", "values": [{"measurement": "AC50", "setting": "[5]", "result": "inconclusive: 0.000145 µM"}]}
{"smiles": "C=CCOC(Cn1ccnc1)c1ccc(Cl)cc1Cl", "note": "(configuration not stated)", "values": [{"measurement": "AC50", "setting": "[1]", "result": "inconclusive: 182 µM"}, {"measurement": "AC50", "setting": "[3]", "result": "inconclusive: 181 µM"}, {"measurement": "outcome", "setting": "[6]", "result": "inactive"}]}
{"smiles": "Cc1oc(-c2ccccc2)nc1CCOc1cccc2c1ccn2CCC(=O)O", "values": [{"measurement": "AC50", "setting": "[5]", "result": "inconclusive: 0.000227 µM"}]}
{"smiles": "OCc1cccc(Oc2ccccc2)c1", "values": [{"measurement": "outcome", "setting": "[2]", "result": "inactive"}, {"measurement": "AC50", "setting": "[1]", "result": "inconclusive: 100 µM"}, {"measurement": "AC50", "setting": "[3]", "result": "inconclusive: 100 µM"}]}
{"smiles": "Oc1ccc2c(c1)-c1ccccc1C2", "values": [{"measurement": "outcome", "setting": "[4]", "result": "inactive"}, {"measurement": "AC50", "setting": "[3]", "result": "inconclusive: 100 µM"}, {"measurement": "outcome", "setting": "[3]", "result": "inactive"}]}
{"smiles": "CCN(CC)C(=S)SSC(=S)N(CC)CC", "values": [{"measurement": "AC50", "setting": "[1]", "result": "inconclusive: 100 µM"}]}
{"smiles": "CCCCCCc1ccc(O)cc1O", "values": [{"measurement": "AC50", "setting": "[5]", "result": "inconclusive: 0.000682 µM"}]}
{"smiles": "O=C(O)c1cccc(N(Cc2cccnc2)c2ccc(OC(F)F)c(OC(F)F)c2)c1", "values": [{"measurement": "AC50", "setting": "[5]", "result": "inconclusive: 0.000895 µM"}]}
{"smiles": "O=C(O)Cc1cc(I)c(Oc2ccc(O)c(I)c2)c(I)c1", "values": [{"measurement": "AC50", "setting": "[4]", "result": "inconclusive: 1 µM"}, {"measurement": "AC50", "setting": "[1]", "result": "active: 0.519 nM and active: 0.826 nM"}, {"measurement": "AC50", "setting": "[7]", "result": "inconclusive: 84.1 µM"}]}
{"smiles": "CCCCOC(=O)CC(CC(=O)OCCCC)(OC(C)=O)C(=O)OCCCC", "values": [{"measurement": "AC50", "setting": "[5]", "result": "inconclusive: 0.000996 µM"}]}
{"smiles": "Cc1cc(=O)oc2cc(N(C)C)ccc12", "values": [{"measurement": "AC50", "setting": "[1]", "result": "inconclusive: 100 µM"}, {"measurement": "outcome", "setting": "[3]", "result": "inactive"}]}
{"smiles": "O=c1cc(-c2ccccc2)oc2cc(O)cc(O)c12", "values": [{"measurement": "AC50", "setting": "[2]", "result": "active: 10.9 µM and active: 7.51 µM"}, {"measurement": "AC50", "setting": "[1]", "result": "active: 26.2 µM and active: 1.8 µM"}]}
{"smiles": "CCCCC(CC)CN1C(=O)C2C3C=CC(C3)C2C1=O", "note": "(configuration not stated)", "values": [{"measurement": "AC50", "setting": "[2]", "result": "inconclusive: 100 µM"}, {"measurement": "AC50", "setting": "[3]", "result": "inconclusive: 100 µM"}]}
{"smiles": "Clc1nc(Cl)c(Cl)c(Cl)c1Cl", "values": [{"measurement": "AC50", "setting": "[2]", "result": "inconclusive: 100 µM and inconclusive: 177 µM"}, {"measurement": "AC50", "setting": "[1]", "result": "inconclusive: 178 µM"}]}
{"smiles": "O=c1c(O)c(-c2ccc(O)cc2)oc2cc(O)cc(O)c12", "values": [{"measurement": "outcome", "setting": "[2]", "result": "inactive"}, {"measurement": "AC50", "setting": "[7]", "result": "inconclusive: 30.2 µM"}]}
{"smiles": "O=C(c1ccc(O)cc1)c1ccc(O)cc1O", "values": [{"measurement": "outcome", "setting": "[2]", "result": "inactive"}, {"measurement": "outcome", "setting": "[1]", "result": "inactive"}]}
{"smiles": "C=CCc1cc(S(=O)(=O)c2ccc(O)c(CC=C)c2)ccc1O", "values": [{"measurement": "AC50", "setting": "[2]", "result": "inconclusive: 33.4 µM"}, {"measurement": "AC50", "setting": "[1]", "result": "active: 1.72 µM"}, {"measurement": "AC50", "setting": "[3]", "result": "inconclusive: 33.4 µM"}]}
{"smiles": "CC(C)(C)c1cc(O)c(C(C)(C)C)cc1O", "values": [{"measurement": "outcome", "setting": "[1]", "result": "inactive"}]}
{"smiles": "CC(C)(C)NC(=O)[C@H]1CC[C@H]2[C@@H]3CC[C@H]4NC(=O)C=C[C@]4(C)[C@H]3CC[C@]12C", "values": [{"measurement": "AC50", "setting": "[1]", "result": "inconclusive: 100 µM"}]}
{"smiles": "CC(=O)C(C)=CC1C(C)=CCCC1(C)C", "note": "(configuration not stated)", "values": [{"measurement": "AC50", "setting": "[1]", "result": "inconclusive: 100 µM"}]}
{"smiles": "CCc1cc(Cc2cc(CC)cc(C(C)(C)C)c2O)c(O)c(C(C)(C)C)c1", "values": [{"measurement": "AC50", "setting": "[6]", "result": "inconclusive: 0.00311 µM"}]}
{"smiles": "NC(=O)N(O)[C@@H]1COc2cc(OCc3ccccc3)ccc21", "values": [{"measurement": "AC50", "setting": "[8]", "result": "inconclusive: 46.1 µM"}, {"measurement": "AC50", "setting": "PGR (gene 5241)", "result": "inconclusive: 2.15 µM"}]}
{"smiles": "CC(C)(c1cc(Br)c(OCCO)c(Br)c1)c1cc(Br)c(OCCO)c(Br)c1", "values": [{"measurement": "AC50", "setting": "[8]", "result": "active: 32.2 µM"}]}
{"smiles": "CCCc1c(OCCCOc2ccc(OCC(=O)O)cc2)ccc(C(C)=O)c1O", "values": [{"measurement": "AC50", "setting": "PGR (gene 5241)", "result": "active: 63.6 µM"}]}
{"smiles": "CC(CCO)CCCC(C)(C)O", "note": "(configuration not stated)", "values": [{"measurement": "AC50", "setting": "[9]", "result": "active: 1.44 µM"}]}
{"smiles": "Cc1cc(C)nc(NS(=O)(=O)c2ccc(N)cc2)n1", "values": [{"measurement": "outcome", "setting": "[9]", "result": "inactive"}]}
